Results reported in the supplement of paper PMC6078165.

System: BT20
Assay: relative JC-1 red fluorescence (viability) vs pre-drug, coculture with fibroblast (fraction); higher = more viable cancer cells
Method: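 JC-1 labelled TNBC cells cocultured 1:1 (1,500 cells each) with CellTrace Violet stained primary or stromal fibroblasts in 384-well plates in FluoroBrite medium, treated with one of 42 anticancer drugs at 0.1, 1, 10 or 100 uM. JC-1 red fluorescence (mitochondrial integrity in cancer cells only) was read by plate reader every 8 h for 72 h. Values are normalised to each well's pre-drug value. The stock of one drug was tenfold lower, so its dose labels may be too high.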

COc1cc([C@@H]2c3cc4c(cc3[C@@H](O[C@@H]3O[C@@H]5CO[C@@H](c6cccs6)O[C@H]5[C@H](O)[C@H]3O)[C@H]3COC(=O)[C@H]23)OCO4)cc(OC)c1O [Teniposide]
relative JC-1 red fluorescence
Settings	8 h	16 h	24 h	32 h	40 h	48 h	56 h	64 h	72 h
0.1 µM, coculture fibroblast: C12385	0.866 ± 0.017	0.852 ± 0.015	0.851 ± 0.054	0.806 ± 0.047	0.761 ± 0.054	0.751 ± 0.059	0.734 ± 0.054	0.737 ± 0.068	0.738 ± 0.085
0.1 µM, coculture fibroblast: H6013	0.926 ± 0.029	0.886 ± 0.01	0.8486 ± 0.0076	0.801 ± 0.025	0.757 ± 0.034	0.74 ± 0.037	0.736 ± 0.038	0.713 ± 0.036	0.706 ± 0.047
0.1 µM, coculture fibroblast: H6019	0.8606 ± 0.0039	0.8069 ± 0.0021	0.808 ± 0.013	0.75 ± 0.021	0.699 ± 0.02	0.683 ± 0.033	0.651 ± 0.025	0.62 ± 0.038	0.606 ± 0.04
0.1 µM, coculture fibroblast: H6076	0.944 ± 0.067	0.903 ± 0.076	0.877 ± 0.076	0.878 ± 0.063	0.875 ± 0.051	0.875 ± 0.051	0.906 ± 0.034	0.92 ± 0.043	0.931 ± 0.047
0.1 µM, coculture fibroblast: H6231	0.855 ± 0.052	0.91 ± 0.037	0.824 ± 0.06	0.772 ± 0.076	0.722 ± 0.083	0.677 ± 0.093	0.635 ± 0.1	0.612 ± 0.11	0.591 ± 0.11
0.1 µM, coculture fibroblast: HADF	0.97 ± 0.041	0.88 ± 0.02	0.7957 ± 0.0063	0.743 ± 0.019	0.704 ± 0.022	0.663 ± 0.017	0.644 ± 0.0089	0.6308 ± 0.0055	0.6066 ± 0.0044
0.1 µM, coculture fibroblast: HCFa	0.9236 ± 0.0059	0.904 ± 0.02	0.8623 ± 0.0083	0.8 ± 0.022	0.763 ± 0.015	0.7404 ± 0.0073	0.712 ± 0.012	0.6908 ± 0.0046	0.649 ± 0.0019
0.1 µM, coculture fibroblast: HCPF	0.935 ± 0.026	0.939 ± 0.025	0.8816 ± 0.0079	0.84 ± 0.022	0.804 ± 0.044	0.762 ± 0.051	0.718 ± 0.053	0.709 ± 0.066	0.68 ± 0.069
0.1 µM, coculture fibroblast: HHSteC	0.9269 ± 0.0058	0.875 ± 0.032	0.854 ± 0.061	0.782 ± 0.066	0.745 ± 0.07	0.705 ± 0.07	0.691 ± 0.055	0.663 ± 0.03	0.627 ± 0.024
0.1 µM, coculture fibroblast: HMF	0.8888 ± 0.0022	0.884 ± 0.027	0.7984 ± 0.0023	0.735 ± 0.032	0.703 ± 0.041	0.655 ± 0.048	0.627 ± 0.058	0.605 ± 0.062	0.577 ± 0.056
0.1 µM, coculture fibroblast: HPFa	0.889 ± 0.012	0.8698 ± 0.0014	0.889 ± 0.015	0.8091 ± 0.0043	0.793 ± 0.012	0.752 ± 0.017	0.734 ± 0.029	0.703 ± 0.042	0.676 ± 0.046
0.1 µM, coculture fibroblast: HUF	0.8902 ± 0.0057	0.812 ± 0.034	0.783 ± 0.045	0.695 ± 0.042	0.655 ± 0.05	0.617 ± 0.07	0.608 ± 0.08	0.595 ± 0.094	0.581 ± 0.1
0.1 µM, coculture fibroblast: Hs5	0.851 ± 0.019	0.929 ± 0.034	0.867 ± 0.07	0.815 ± 0.067	0.779 ± 0.086	0.754 ± 0.097	0.739 ± 0.12	0.719 ± 0.12	0.713 ± 0.14
0.1 µM, coculture fibroblast: Hs27A	0.842 ± 0.17	0.97912 ± 4.9e-05	0.848 ± 0.05	0.912 ± 0.071	0.887 ± 0.089	0.879 ± 0.11	0.884 ± 0.13	0.868 ± 0.14	0.839 ± 0.17
0.1 µM, coculture fibroblast: Hs343T	0.827 ± 0.16	0.899 ± 0.05	0.8 ± 0.043	0.747 ± 0.038	0.705 ± 0.047	0.669 ± 0.022	0.627 ± 0.034	0.608 ± 0.038	0.587 ± 0.035
0.1 µM, coculture fibroblast: WS1	0.8544 ± 0.0034	0.803 ± 0.033	0.797 ± 0.087	0.738 ± 0.099	0.688 ± 0.12	0.677 ± 0.13	0.66 ± 0.15	0.649 ± 0.15	0.658 ± 0.17
1 µM, coculture fibroblast: C12385	0.8913 ± 0.0058	0.84 ± 0.019	0.813 ± 0.083	0.751 ± 0.11	0.679 ± 0.14	0.654 ± 0.16	0.628 ± 0.18	0.633 ± 0.18	0.627 ± 0.18
1 µM, coculture fibroblast: H6013	0.936 ± 0.03	0.899 ± 0.028	0.884 ± 0.034	0.8261 ± 0.0081	0.79 ± 0.019	0.771 ± 0.023	0.779 ± 0.033	0.766 ± 0.034	0.751 ± 0.037
1 µM, coculture fibroblast: H6019	0.8461 ± 0.0067	0.772 ± 0.018	0.759 ± 0.022	0.666 ± 0.029	0.602 ± 0.028	0.586 ± 0.029	0.554 ± 0.021	0.54 ± 0.031	0.529 ± 0.028
1 µM, coculture fibroblast: H6076	0.9671 ± 0.0071	0.8909 ± 0.0064	0.813 ± 0.042	0.756 ± 0.043	0.729 ± 0.051	0.697 ± 0.045	0.706 ± 0.056	0.699 ± 0.057	0.683 ± 0.045
1 µM, coculture fibroblast: H6231	0.846 ± 0.18	0.872 ± 0.011	0.776 ± 0.0083	0.71341 ± 0.00039	0.6613 ± 0.006	0.607 ± 0.015	0.576 ± 0.031	0.56 ± 0.034	0.55 ± 0.037
1 µM, coculture fibroblast: HADF	0.9678 ± 0.0051	0.925 ± 0.021	0.878 ± 0.048	0.799 ± 0.049	0.748 ± 0.078	0.695 ± 0.078	0.686 ± 0.097	0.668 ± 0.12	0.639 ± 0.13
1 µM, coculture fibroblast: HCFa	0.936 ± 0.012	0.887 ± 0.022	0.846 ± 0.034	0.763 ± 0.026	0.705 ± 0.034	0.659 ± 0.023	0.6234 ± 0.0019	0.584 ± 0.016	0.544 ± 0.0098
1 µM, coculture fibroblast: HCPF	0.9918 ± 0.0059	0.906 ± 0.0044	0.8504 ± 0.0016	0.787 ± 0.013	0.7509 ± 0.0064	0.713 ± 0.013	0.6876 ± 0.0013	0.673 ± 0.00078	0.66 ± 0.012
1 µM, coculture fibroblast: HHSteC	0.887 ± 0.049	0.836 ± 0.13	0.87 ± 0.081	0.833 ± 0.017	0.8116 ± 0.0046	0.829 ± 0.057	0.871 ± 0.092	0.786 ± 0.00096	0.786 ± 0.033
1 µM, coculture fibroblast: HMF	0.9244 ± 0.0022	0.866 ± 0.018	0.77207 ± 0.0006	0.6947 ± 0.0029	0.652 ± 0.011	0.608 ± 0.0093	0.581 ± 0.029	0.561 ± 0.035	0.535 ± 0.039
1 µM, coculture fibroblast: HPFa	0.976 ± 0.01	0.966 ± 0.043	0.898 ± 0.091	0.906 ± 0.062	0.885 ± 0.11	0.835 ± 0.12	0.826 ± 0.14	0.81 ± 0.15	0.78 ± 0.16
1 µM, coculture fibroblast: HUF	0.886 ± 0.017	0.783 ± 0.0028	0.73176 ± 0.00057	0.633 ± 0.012	0.5806 ± 0.0038	0.549 ± 0.0065	0.537 ± 0.0065	0.522 ± 0.014	0.51 ± 0.013
1 µM, coculture fibroblast: Hs5	0.938 ± 0.029	0.925 ± 0.038	0.856 ± 0.075	0.806 ± 0.074	0.777 ± 0.075	0.746 ± 0.076	0.727 ± 0.091	0.716 ± 0.1	0.704 ± 0.097
1 µM, coculture fibroblast: Hs27A	0.837 ± 0.19	0.823 ± 0.17	0.917 ± 0.032	0.949 ± 0.054	0.937 ± 0.057	0.933 ± 0.067	0.942 ± 0.048	0.945 ± 0.051	0.922 ± 0.032
1 µM, coculture fibroblast: Hs343T	0.935 ± 0.054	0.875 ± 0.014	0.778 ± 0.0023	0.7061 ± 0.007	0.651 ± 0.0068	0.5904 ± 0.0045	0.5525 ± 0.0035	0.526 ± 0.0057	0.508 ± 0.015
1 µM, coculture fibroblast: WS1	0.834 ± 0.013	0.741 ± 0.012	0.69 ± 0.013	0.593 ± 0.011	0.515 ± 0.015	0.479 ± 0.028	0.464 ± 0.044	0.452 ± 0.055	0.451 ± 0.057

± gives the standard deviation of the averaged measurements. Values are relative to the signal before dosing, not to a vehicle control; the signal also falls without drug.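 Fibroblast labels name human fibroblasts: mostly primary ones from tissues such as uterus (C12385, HUF), lung (H6013), bone (Hs27A), adrenal (HADF) and skin (WS1), plus mammary HMF and breast cancer-associated Hs343T. The cancer cells are basal-like or mesenchymal-like triple-negative breast cancer lines. The paper calls a changed response a hit when it shifts by more than 3x the replicate standard deviation. The tissue of the other fibroblasts is not given here.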
